In PMC10329019, “Membrane translocation process revealed by in situ structures of type II secretion system secretins” (Nature Communications, 2023):
Results are given in words; binding and its absence hold for the method and conditions named. Binding can be weak; no strength is given. Where a sequence is shown, tags or fusion partners need not be part of it.

Columns and labels:
[1] = biological target: T1, GspDβ secretin (ETEC H10407 strain) with C-terminal hexahistidine tag, from pETDuet-gspDβ-his, expressed alone (Enterotoxigenic E. coli (ETEC) H10407 strain) (UniProt E3PJ86); assay: cryo-EM structure; in situ cryo-ET subtomogram averaging of particles on the outer membrane of E. coli minicells overexpressing only GspDβ; 723 particles, C15 symmetry, 16 Å; C5 refinement as a test of symmetry
T1 sequence: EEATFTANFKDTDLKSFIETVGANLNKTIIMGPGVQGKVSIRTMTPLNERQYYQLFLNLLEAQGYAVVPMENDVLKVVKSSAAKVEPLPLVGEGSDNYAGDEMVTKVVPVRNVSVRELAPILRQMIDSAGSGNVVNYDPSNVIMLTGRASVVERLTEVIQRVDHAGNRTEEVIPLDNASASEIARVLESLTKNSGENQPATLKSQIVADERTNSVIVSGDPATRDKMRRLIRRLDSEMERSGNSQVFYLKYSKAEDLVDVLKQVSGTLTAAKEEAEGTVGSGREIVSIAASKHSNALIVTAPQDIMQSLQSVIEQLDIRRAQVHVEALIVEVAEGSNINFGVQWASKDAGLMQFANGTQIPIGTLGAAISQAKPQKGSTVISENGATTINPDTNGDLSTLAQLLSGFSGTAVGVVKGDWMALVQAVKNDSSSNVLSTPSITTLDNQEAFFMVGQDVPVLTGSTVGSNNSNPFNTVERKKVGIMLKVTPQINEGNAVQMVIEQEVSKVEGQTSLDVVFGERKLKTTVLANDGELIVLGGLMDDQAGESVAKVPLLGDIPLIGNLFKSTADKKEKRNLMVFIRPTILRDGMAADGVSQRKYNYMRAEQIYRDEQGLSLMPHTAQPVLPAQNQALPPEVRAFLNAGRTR

[2] = biological target: T2, GspDβ secretin (ETEC H10407 strain) with hexahistidine tag, from pETDuet-gspDβ-his-gspS, co-expressed with GspS (Enterotoxigenic E. coli (ETEC) H10407 strain) (UniProt E3PJ86); assay: cryo-EM structure; in situ cryo-ET subtomogram averaging of particles on the outer membrane of E. coli minicells overexpressing GspDβ and GspS; 514 particles, C15 symmetry, 19 Å; C5 refinement as a test of symmetry
T2 sequence: T1 sequence

Row | Substance | binding [1] | binding [2]
1 | endogenous GspS of the E. coli expression strain | binds | 
2 | GspS pilotin (ETEC H10407 strain), no tag |  | binds
